Test results: PubChem BioAssay AID555 (SRMLSC, 2006)
This is one part of the list.

test system: mevalonate kinase [Streptococcus pneumoniae D39]; assay: S. pneumoniae MK inhibitors, primary screen, biochemical, PK/LDH-coupled NADH absorbance (AID 555); details: purified MK, PK/LDH-coupled NADH absorbance 340 nm; measured here: pilot screen replicates; at 10 µM; stronger effect = higher value

Compound | inhibition [%]
Fc1ccccc1NC1CCN(Cc2ccccc2)CC1 | 1.5
